## Assay results

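A cell-based luciferase reporter for ATXN2 expression, read by light output at 24 h, with a viability multiplex.
Compounds were tested as a dilution series from about 0.0037 to 57 µM.
The number is the fitted half-maximal inhibitory concentration (AC50); a lower value means a more potent inhibitor.
Calls come from curve class and activity score: actives score 40–100, while inconclusive compounds (weak, partial, poorly fitted or single-point curves) score 1–39.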

Values are in nM.
All entries here are filed as inconclusive.
Only part of the assay is shown, chiefly results filed as inconclusive.
Potencies fitted to partial, single-point or poorly fitting curves are rough.
Activity scores are not listed here.

{"compound": "NC(c1csc(Nc2ccc(C(F)(F)F)cn2)n1)C1CCCCC1", "stereo": "centres undefined", "potency (nM)": "31622", "remark": "inhibitor, single point"}
{"compound": "CN(C)CCCNc1nc2cc(-c3cccc(Cl)c3)sc2c(=O)n1C", "potency (nM)": "14125", "remark": "inhibitor, partial curve, poor fit"}
{"compound": "Cn1c(SCC(=O)Nc2cc(Cl)cc(Cl)c2)nnc1-c1ccc2nonc2c1", "potency (nM)": "2239", "remark": "inhibitor, partial curve, poor fit"}
{"compound": "Cc1nn(-c2ccccc2)c(N2CCCC2)c1/C=N/NC(=O)c1cc2ccccc2cc1O", "potency (nM)": "3162", "remark": "inhibitor, single point"}
{"compound": "CC(=O)c1cccc(-c2ccnc3c2CC(C(=O)Nc2ccc(F)c(Cl)c2)O3)c1", "stereo": "centres undefined", "potency (nM)": "2512", "remark": "inhibitor, single point"}
{"compound": "CCC(C)OC(=O)c1c(N)n(Cc2cccs2)c2nc3ccccc3nc12", "stereo": "centres undefined", "potency (nM)": "28183", "remark": "inhibitor, partial curve, poor fit"}
{"compound": "CCc1nc(N)nc(N)c1-c1ccc(N(C)Cc2ccccc2)c([N+](=O)[O-])c1", "potency (nM)": "6310", "remark": "inhibitor, partial curve, poor fit"}
{"compound": "COc1cccc(-c2nn(C)c3sc(C(=O)NCCCN(C)Cc4ccccc4)cc23)c1", "potency (nM)": "17782", "remark": "inhibitor, partial curve, poor fit"}
{"compound": "O=C(CCCN1CCc2[nH]c3ccc(F)cc3c2C1)c1ccc(F)cc1", "potency (nM)": "15848", "remark": "inhibitor, partial curve, poor fit"}
{"compound": "CC(=O)c1sc(NC(=O)C2(F)C(F)(F)C(F)(F)C(F)(F)C(F)(F)C2(F)F)nc1C", "potency (nM)": "1412", "remark": "inhibitor, partial curve"}
{"compound": "CCCC(=O)OC/C(O)=C(\\C#N)c1nc2ccccc2[nH]1", "potency (nM)": "3548", "remark": "inhibitor, partial curve"}
{"compound": "Cc1c(CC(=O)NCCCC(=O)O)c(=O)oc2cc3c(cc12)CCC(C)(C)O3", "potency (nM)": "12589", "remark": "inhibitor, partial curve, poor fit"}
{"compound": "c1ccc(CNc2nc(-c3ccccn3)nc3ccccc23)cc1", "potency (nM)": "5012", "remark": "inhibitor, full curve, poor fit"}
{"compound": "O=C(CN(c1cccc(Br)c1)S(=O)(=O)c1ccccc1)N/N=C/c1cc([N+](=O)[O-])ccc1O", "potency (nM)": "15848", "remark": "inhibitor, partial curve, poor fit"}
{"compound": "COc1ccc(-c2cnc3c(NC=O)cc(-c4ccccc4OC)cn23)cc1OC", "potency (nM)": "281.8", "remark": "inhibitor, full curve, poor fit"}
{"compound": "CN(CCOc1ccc(Br)cc1)CC(O)COc1ccc(C#N)cc1", "stereo": "centres undefined", "potency (nM)": "15848", "remark": "inhibitor, partial curve, poor fit"}
{"compound": "Cc1ccc(C)c(N2CCN(C(=O)C34CC5CC(C3)CC(n3nnc(C)n3)(C5)C4)CC2)c1", "potency (nM)": "25118", "remark": "inhibitor, partial curve, poor fit"}
{"compound": "Cc1cc(C)cc(NC(=O)CCC(=O)Nc2cc(C)on2)c1", "potency (nM)": "3162", "remark": "inhibitor, single point"}
{"compound": "Cc1c(N=C2C=CC(=O)c3ccccc32)c(=O)n(-c2ccccc2)n1C", "potency (nM)": "25118", "remark": "inhibitor, partial curve, poor fit"}
{"compound": "Cc1cc(-c2ccccc2)n(-c2cc(N/N=C/c3ccccc3O)ncn2)n1", "potency (nM)": "11220", "remark": "inhibitor, partial curve, poor fit"}
{"compound": "CN(c1ccc(OCC(=O)N2CCN(c3ccc(F)cc3)CC2)cc1)S(=O)(=O)c1cccs1", "potency (nM)": "1995", "remark": "inhibitor, partial curve"}
{"compound": "CCOC(=O)/C(=C/c1ccc(N2CCC(c3ccccc3)=N2)cc1)C(C)=O", "potency (nM)": "112.2", "remark": "inhibitor, full curve, poor fit"}
{"compound": "CC(=O)Oc1ccccc1Cn1c(C)c(C(=O)NCc2ccc(Cl)c(Cl)c2)sc1=O", "potency (nM)": "28183", "remark": "inhibitor, partial curve, poor fit"}
{"compound": "C[C@@H](CN1C2=NC[C@H](Cc3ccccc3)N2C[C@H]1Cc1ccc(O)cc1)NC(=O)CCC1CCCCC1", "potency (nM)": "31622", "remark": "inhibitor, single point"}
{"compound": "C=CCn1c(C)c(/C=C/c2cc[n+](C)cc2)c2ccccc21", "potency (nM)": "2512", "remark": "inhibitor, partial curve"}
{"compound": "COc1ccc(C)cc1NC(=O)COC(=O)c1c(C)nn(-c2ccccc2)c1C", "potency (nM)": "25118", "remark": "inhibitor, partial curve, poor fit"}

3 of the entries, repeated:

Compound,potency (nM),remark
CN(c1ccc(OCC(=O)N2CCN(c3ccc(F)cc3)CC2)cc1)S(=O)(=O)c1cccs1,1995,"inhibitor, partial curve"
Cc1nn(-c2ccccc2)c(N2CCCC2)c1/C=N/NC(=O)c1cc2ccccc2cc1O,3162,"inhibitor, single point"
Cc1cc(-c2ccccc2)n(-c2cc(N/N=C/c3ccccc3O)ncn2)n1,11220,"inhibitor, partial curve, poor fit"

From PubChem BioAssay record AID1745848 (NCATS, 2022).